Assay in all cases: co-IP; anti-HA high affinity matrix on 300 µg parasite lysate (150 mM NaCl, 50 mM TrisCl pH 7.4, 0.1% NP-40), overnight at 4°C; Western blot with HA, GCN5b or β-tubulin antibodies; parental RHΔku80 as control
The target in experiment [1] is AP2IX-7 endogenously tagged with a C-terminal 3xHA tag (Toxoplasma gondii (endogenous locus tagged in RHΔku80)).
The target in experiment [2] is AP2X-5 endogenously tagged with a C-terminal 3xHA tag (Toxoplasma gondii (endogenous locus tagged in RHΔku80)).
The target of experiment [3] is AP2X-8 endogenously tagged with a C-terminal 3xHA tag (Toxoplasma gondii (endogenous locus tagged in RHΔku80)).

Results are given in words; binding and its absence hold for the method and conditions named. In cells and extracts the contact can be indirect. For part of these data: Binding calls can cover weak binding; strength is not graded here.

B1: GCN5b (endogenous) (enzyme, UniProt S8F3V2 1-1032)
chain: MAPSECPSDAPGGSGESRVSAEPSSSETPSSAVSSHSPHRAQLSSTQPKNPASPPTSDVSAPHVPLLGAEASGGDPSADPLGGEGAMERERQAFAEGPGLSARVETALSPQLRTTSGELQQAAADAAVSPDGEKEKEVANSRKGEDSGRLSAFVGRGSRRSSHAEPAEGPSLPSGADGRLPASGPWASEAPPAGRSASAPVPPVSPGFAFPSVTSCLPLNASIGDIALRLVKEILQPVLARDIQVDPPSPFRFTASGMAKALELSPVCFSPAYAASLRKSYAQMGTAGSCFYCVSAPCVCGAFAPPLAQARPAENKKRGRDACEGPQAEPPVGRGPRRGPNDSGAPVGQDLPGGPQAPGGPGGGFGAGQTFQDNLRQMCLFHPYSSVPPPKLIDMRYLCLFLSASADSPFACATRTGLCPFFGDGPFGPDGETRNGREGPLARSGDKVEGEKTFLSFVDETADFGDASVEKGFPDHARIGWEVVEEVAESLEAIFNTIQMETVEDRRDALTVPDEFYAQNYWEWRQFLLDKAPTGASVSRTFGRSLLRSLLLASPGTIAKDLQRTPISFAAGILFFRLCEEVGIEPETRHVLWRTVASSQPELRSRLVSESGLGFLCRDLGSAKEEEAGLITFKCVTNDRQPFSSRALVTVKNIFSRQLPKMPREYIVRLVFDRNHYTFCLNKEDTIIGGCCFRPYFQQKFAEIAFLAVTSTEQVKGYGTRLMNHLKEHVKKSGIEYFLTYADNFAVGYFRKQGFTQKISMPRERWYGYIKDYEGGTLMECHINPRINYLRLSEMLHDQQQVIKRATVSLKPLAVYPGLDFWKKNPGQTLSPSQIPGLLQCGWHPGEGAPRAGADGKGISEAERAFLGSTGAPDGAGSAGVGQGYMRPLHEQIMDILDALGKHHSAWPFLKPVSREEAPDYYDVILQPTDISTMKKKCKKKHYTTAQMFADEVQLMFKNCRQYNHQQTIYYKYANELDKFVTPKIQALKQAFQQQQKQLAQKGAASGTGVPPLRSPQGGDEGLVGAKHPTFF
As to B1, the binding result in experiment [1] was “binds”; in experiment [2] it was “no binding”; in experiment [3] it was “binds”.

The values are drawn from publication PMC3879359.
